Data: paper PMC7754597
No constants are given. Whether binding was seen depends on the method and setting. Some results given as binding are weak or reduced against the parent protein; the word gives no strength.

Target: T1, Full-length human CHMP4B^A54C;L180C (CHMP4B^redox) (human) (UniProt Q9H444)
T1 sequence: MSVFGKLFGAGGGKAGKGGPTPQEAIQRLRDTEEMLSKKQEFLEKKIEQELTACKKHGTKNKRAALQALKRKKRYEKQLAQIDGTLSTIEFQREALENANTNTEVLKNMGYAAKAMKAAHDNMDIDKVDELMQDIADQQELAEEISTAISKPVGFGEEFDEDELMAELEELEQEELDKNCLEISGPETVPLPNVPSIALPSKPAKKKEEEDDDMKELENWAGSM
Assay: co-IP; purified CHMP4B^redox and LGD1 incubated with rabbit anti-CHMP4B antibody overnight at 4 °C, then Protein G Sepharose beads; washed with Wash Buffer I (50 mM NaH2PO4, 300 mM NaCl, 5% glycerol, pH 7.4); Western blot with anti-His and anti-CHMP4B; both purified

binding: binds
B1: LGD1 (CC2D1B) (protein, UniProt Q5T0F9 1-858)
chain: MMPGPRPRKGPQARGQGVAAAKQMGLFMEFGPEDMLLGMDEAEDDEDLEAELLALTGEAQTTGKKPAPKGQAPLPMAHIEKLAADCMRDVEEEEEEEGLEEDAELLTELQEVLGVDEETEPLDGDEVADPGGSEEENGLEDTEPPVQTAVLTASAPAAQAGASQGLHALLEERIHNYREAAASAKEAGEAAKARRCERGLKTLESQLASVRRGRKINEDEIPPPVALGKRPLAPQEPANRSPETDPPAPPALESDNPSQPETSLPGISAQPVSDLDPDPRALLSSRQREYKVAALSAKRAGELDRARELMRIGKRFGAVLEALEKGQPVDLSAMPPAPEDLKPQQASQAPTAPSVIPPAVERVQPVMAPDVPATPVAPTESQTVLDALQQRLNKYREAGIQARSGGDERKARMHERIAKQYQDAIRAHRAGRKVNFAELPVPPGFPPIPGLESTMGVEEDAVAATLAAAEKLASAEDSAPADKDEDEPPGHLQGEPPAQAPVAKKPARPTVPSSQRLPEPRASSSKESPSPSVREQLALLEARKLQYQRAALQAKRSQDLEQAKAYLRVAKWLEAQIIQARSGRPVDLSKVPSPLTDEEGDFILIHHEDLRLSQKAEEVYAQLQKMLLEQQEKCLLFSKQFMHQGNVAETTRFEKLAQDRKKQLEILQLAQAQGLDPPTHHFELKTFQTVRIFSELNSTEMHLIIVRGMNLPAPPGVTPDDLDAFVRFEFHYPNSDQAQKSKTAVVKNTNSPEFDQLFKLNINRNHRGFKRVIQSKGIKFEIFHKGSFFRSDKLVGTAHLKLERLENECEIREIVEVLDGRKPTGGKLEVKVRLREPLSGQDVQMVTENWLVLEPRGL
